Assay results taken from paper PMC11161652, “ASXLs binding to the PHD2/3 fingers of MLL4 provides a mechanism for the recruitment of BAP1 to active enhancers” (Nature Communications, 2024).

Amino acid sequences for entries named in this document (tags omitted). A change or cut given only in a name is not applied to a line headed by its entry. Residues count along the entry.
UniProt O14686, residues 227-324: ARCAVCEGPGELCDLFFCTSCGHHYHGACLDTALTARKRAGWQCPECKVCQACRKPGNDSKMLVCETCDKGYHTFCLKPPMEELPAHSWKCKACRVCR
UniProt Q76L83: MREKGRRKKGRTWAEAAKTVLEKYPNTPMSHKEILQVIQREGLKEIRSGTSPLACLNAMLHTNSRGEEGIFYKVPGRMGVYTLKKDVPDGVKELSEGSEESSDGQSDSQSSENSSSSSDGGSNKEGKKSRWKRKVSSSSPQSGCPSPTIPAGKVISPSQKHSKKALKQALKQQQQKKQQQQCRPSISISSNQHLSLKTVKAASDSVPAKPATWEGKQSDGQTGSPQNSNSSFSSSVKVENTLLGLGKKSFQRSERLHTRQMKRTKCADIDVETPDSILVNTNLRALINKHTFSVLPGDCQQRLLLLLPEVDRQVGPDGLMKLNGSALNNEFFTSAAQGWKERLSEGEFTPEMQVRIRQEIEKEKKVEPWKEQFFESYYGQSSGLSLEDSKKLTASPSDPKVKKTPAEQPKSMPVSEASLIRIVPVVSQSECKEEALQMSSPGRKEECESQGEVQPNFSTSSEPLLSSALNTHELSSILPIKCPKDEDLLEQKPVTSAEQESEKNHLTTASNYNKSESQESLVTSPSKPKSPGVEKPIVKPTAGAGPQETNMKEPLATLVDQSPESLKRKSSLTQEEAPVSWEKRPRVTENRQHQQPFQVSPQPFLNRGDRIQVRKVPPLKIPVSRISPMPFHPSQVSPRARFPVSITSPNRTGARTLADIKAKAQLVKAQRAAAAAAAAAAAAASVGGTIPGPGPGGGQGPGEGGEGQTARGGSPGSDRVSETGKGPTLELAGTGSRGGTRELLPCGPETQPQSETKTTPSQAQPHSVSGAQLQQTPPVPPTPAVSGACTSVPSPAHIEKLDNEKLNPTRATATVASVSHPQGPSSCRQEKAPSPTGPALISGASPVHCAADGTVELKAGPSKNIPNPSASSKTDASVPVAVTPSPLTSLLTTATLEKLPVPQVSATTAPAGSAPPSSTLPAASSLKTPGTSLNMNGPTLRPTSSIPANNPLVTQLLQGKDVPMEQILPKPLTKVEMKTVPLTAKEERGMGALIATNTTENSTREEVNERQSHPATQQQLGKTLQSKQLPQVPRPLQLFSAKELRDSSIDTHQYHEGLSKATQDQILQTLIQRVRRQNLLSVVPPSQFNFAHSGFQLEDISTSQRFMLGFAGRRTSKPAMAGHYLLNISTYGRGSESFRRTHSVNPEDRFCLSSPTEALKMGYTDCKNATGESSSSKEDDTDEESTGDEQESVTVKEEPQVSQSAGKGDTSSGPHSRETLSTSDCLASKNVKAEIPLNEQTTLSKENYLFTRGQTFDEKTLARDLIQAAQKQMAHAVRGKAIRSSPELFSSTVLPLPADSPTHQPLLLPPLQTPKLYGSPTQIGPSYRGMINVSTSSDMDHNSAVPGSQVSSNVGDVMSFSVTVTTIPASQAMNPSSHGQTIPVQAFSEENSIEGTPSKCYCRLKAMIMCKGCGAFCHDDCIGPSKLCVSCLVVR

Key:
[1] = target: T1, GST-MLL3_(PHD2/3), wild type (human) (UniProt Q8NEZ4); test: pull-down; about 9 μg GST-MLL3 PHD2/3 or GST-MLL4 PHD2/3 (WT or mutants) on GSH resin, incubated 3 h at 4 °C with lysate of HEK293FT cells expressing Myc-ASXL1, Myc-ASXL2 or Myc-ASXL2ΔMBH; 5 washes; western blot; only the target purified
T1 sequence: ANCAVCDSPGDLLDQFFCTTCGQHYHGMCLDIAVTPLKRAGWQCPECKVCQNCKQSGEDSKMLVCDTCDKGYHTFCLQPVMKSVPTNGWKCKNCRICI

[2] = target: GST-MLL4_(PHD2/3), wild type (human) (UniProt O14686); test: as above

binding [1]: no binding | binding [2]: no binding
Substance: Myc-ASXL2ΔMBH (from UniProt Q76L83)

Results are given in words; binding and its absence hold for the method and conditions named. Binding seen in cells or lysates may run through a third protein. For some assays here: Where a sequence is shown, tags or fusion partners need not be part of it.
